# Results deposited as PubChem BioAssay AID1259308 (NCATS, 2017)
# Test: 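Knock-downs that increase output of a recombinant reporter protein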 (primary screen)
# System: human HEK293 embryonic kidney cells stably expressing firefly luciferase (HEK-CMV-Luc2-Hygro)
# Knock-down reagent: single siRNA against human genes, 0.8 pmol siRNA per well
# Timing: 72 h
# Measured: 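Luciferase light (ONE-Glo) measured on one replicate plate set and viability (CellTiter-Glo) on the other, scaled to a negative control siRNA, with robust z-scores and luciferase per cell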
# Reading the numbers: total luciferase, z-score and total luciferase, % of control: higher = more reporter protein produced
# Active means: 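Active when the median/MAD z-score for overall luciferase is greater than 3; a gene was taken forward for validation with new siRNAs if at least two of its three siRNAs passed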
# Calls: active = raised luciferase; inactive = no rise
# This is an unselected part of about 59,000 reagents. About 1,510 of all reagents (2.6%) count as active. 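Calls use total luciferase alone and ignore viability, so some active siRNAs may act by altering cell number.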 Unmarked entries are inactive. The numbers tell different reagents against one gene apart. Not all columns of the deposit are shown.
Target gene,siRNA no.,"total luciferase, z-score","total luciferase, % of control"
RPP40 (ribonuclease P/MRP subunit p40),1,-0.302,75.9
RPP40 (ribonuclease P/MRP subunit p40),2,3.8 (active),158
RPP40 (ribonuclease P/MRP subunit p40),3,-1.08,60.4
NSFP1 (N-ethylmaleimide-sensitive factor pseudogene 1),1,-1.16,58.8
NSFP1 (N-ethylmaleimide-sensitive factor pseudogene 1),2,-0.84,65.2
NSFP1 (N-ethylmaleimide-sensitive factor pseudogene 1),3,-0.426,73.4
TMEM71 (transmembrane protein 71),1,0.504,91.9
TMEM71 (transmembrane protein 71),2,0.199,85.9
TMEM71 (transmembrane protein 71),3,0.401,89.9
NBPF3 (NBPF member 3),1,0.0249,82.4
NBPF3 (NBPF member 3),2,-0.37,74.5
NBPF3 (NBPF member 3),3,-2.22,37.7
ICAM3 (intercellular adhesion molecule 3),1,0.677,95.4
ICAM3 (intercellular adhesion molecule 3),2,0.5,91.8
ICAM3 (intercellular adhesion molecule 3),3,1.23,106
SORBS2 (sorbin and SH3 domain containing 2),1,-0.462,72.7
SORBS2 (sorbin and SH3 domain containing 2),2,0.953,101
SORBS2 (sorbin and SH3 domain containing 2),3,-2.29,36.3
"GTF2H2C_2 (GTF2H2 family member C, copy 2)",1,2.93,140
"GTF2H2C_2 (GTF2H2 family member C, copy 2)",2,0.347,88.8
"GTF2H2C_2 (GTF2H2 family member C, copy 2)",3,-0.0111,81.7
ATF2 (activating transcription factor 2),1,-1.52,51.7
ATF2 (activating transcription factor 2),2,-2.08,40.5
ATF2 (activating transcription factor 2),3,-0.104,79.8
LSM14B (LSM family member 14B),1,-0.736,67.3
LSM14B (LSM family member 14B),2,-0.532,71.3
LSM14B (LSM family member 14B),3,-2.01,41.8
GSTA4 (glutathione S-transferase alpha 4),1,0.153,84.9
GSTA4 (glutathione S-transferase alpha 4),2,-1.07,60.7
GSTA4 (glutathione S-transferase alpha 4),3,-0.0537,80.8
PAX2 (paired box 2),1,0.794,97.7
PAX2 (paired box 2),2,-1.92,43.8
PAX2 (paired box 2),3,-1.47,52.7
DDX6 (DEAD-box helicase 6),1,0.826,98.3
DDX6 (DEAD-box helicase 6),2,3.36 (active),149
DDX6 (DEAD-box helicase 6),3,2.03,122
OR9K2 (olfactory receptor family 9 subfamily K member 2),1,0.0598,83.1
OR9K2 (olfactory receptor family 9 subfamily K member 2),2,-1.02,61.7
OR9K2 (olfactory receptor family 9 subfamily K member 2),3,1.48,111
DUOX1 (dual oxidase 1),1,-0.244,77
DUOX1 (dual oxidase 1),2,-1.27,56.5
DUOX1 (dual oxidase 1),3,-0.056,80.8
CLEC2D (C-type lectin domain family 2 member D),1,0.0817,83.5
CLEC2D (C-type lectin domain family 2 member D),2,-1.07,60.5
CLEC2D (C-type lectin domain family 2 member D),3,0.289,87.6
C1QTNF1 (C1q and TNF related 1),1,-0.604,69.9
C1QTNF1 (C1q and TNF related 1),2,-0.954,62.9
C1QTNF1 (C1q and TNF related 1),3,0.436,90.6

Continued (10 carried over from the part before).
Target gene,siRNA no.,"total luciferase, z-score","total luciferase, % of control"
OR9K2 (olfactory receptor family 9 subfamily K member 2),3,1.48,111
DUOX1 (dual oxidase 1),1,-0.244,77
DUOX1 (dual oxidase 1),2,-1.27,56.5
DUOX1 (dual oxidase 1),3,-0.056,80.8
CLEC2D (C-type lectin domain family 2 member D),1,0.0817,83.5
CLEC2D (C-type lectin domain family 2 member D),2,-1.07,60.5
CLEC2D (C-type lectin domain family 2 member D),3,0.289,87.6
C1QTNF1 (C1q and TNF related 1),1,-0.604,69.9
C1QTNF1 (C1q and TNF related 1),2,-0.954,62.9
C1QTNF1 (C1q and TNF related 1),3,0.436,90.6
CFAP53 (cilia and flagella associated protein 53),1,3.96 (active),161
CFAP53 (cilia and flagella associated protein 53),2,-1.66,48.9
CFAP53 (cilia and flagella associated protein 53),3,-0.0842,80.2
LPXN (leupaxin),1,-0.418,73.6
LPXN (leupaxin),2,1.2,106
LPXN (leupaxin),3,-1.06,60.8
ZNF280A (zinc finger protein 280A),1,-0.968,62.6
ZNF280A (zinc finger protein 280A),2,0.399,89.8
ZNF280A (zinc finger protein 280A),3,-0.0946,80
CRYBG2 (crystallin beta-gamma domain containing 2),1,-0.396,74
CRYBG2 (crystallin beta-gamma domain containing 2),2,0.348,88.8
CRYBG2 (crystallin beta-gamma domain containing 2),3,0.136,84.6
RPL38 (ribosomal protein L38),1,-2.02,41.8
RPL38 (ribosomal protein L38),2,-2.23,37.4
RPL38 (ribosomal protein L38),3,-2.84,25.3
"FARP2 (FERM, ARH/RhoGEF and pleckstrin domain protein 2)",1,-0.665,68.7
"FARP2 (FERM, ARH/RhoGEF and pleckstrin domain protein 2)",2,-0.343,75.1
"FARP2 (FERM, ARH/RhoGEF and pleckstrin domain protein 2)",3,-0.2,77.9
PRDX2 (peroxiredoxin 2),1,-0.107,79.8
PRDX2 (peroxiredoxin 2),2,0.919,100
PRDX2 (peroxiredoxin 2),3,-0.221,77.5
"B3GALT6 (beta-1,3-galactosyltransferase 6)",1,-0.645,69.1
"B3GALT6 (beta-1,3-galactosyltransferase 6)",2,0.541,92.6
"B3GALT6 (beta-1,3-galactosyltransferase 6)",3,1.16,105
LRRC47 (leucine rich repeat containing 47),1,0.37,89.2
LRRC47 (leucine rich repeat containing 47),2,-1.42,53.7
LRRC47 (leucine rich repeat containing 47),3,2.06,123
